Test results taken from patent CN1618812A.
Results are given in words; binding and its absence hold for the method and conditions named. Binding seen in cells or lysates may run through a third protein. Some binding calls cover weakened binding; strength is not graded here. Sequences can lack the tags named with a protein.

Target: T1, 人CD20蛋白 (human) (UniProt P11836)
T1 sequence (looked up): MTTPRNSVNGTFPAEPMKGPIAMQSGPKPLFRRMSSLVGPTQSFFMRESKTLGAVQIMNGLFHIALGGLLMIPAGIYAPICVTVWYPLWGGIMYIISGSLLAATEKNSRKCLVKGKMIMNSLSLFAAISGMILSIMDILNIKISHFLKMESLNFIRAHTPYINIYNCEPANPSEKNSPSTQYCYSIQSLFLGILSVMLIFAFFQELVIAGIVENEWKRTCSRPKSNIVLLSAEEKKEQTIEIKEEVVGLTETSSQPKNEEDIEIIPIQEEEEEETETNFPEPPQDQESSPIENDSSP
Assay: in vitro precipitation (pull-down) of human CD20 protein by the GST-scFv fusion

binding: binds
B1: GST融合抗CD20单链抗体 (scFv)
scFv: QESGPGLVKPSETLSLTCVVSGGSISSSNWWSWVRQPPGKGLEWIGEIYHSGSPNYNPSLKSRVTISVDKSKNQFSLKLSSVTAADTAVYYCARIIRIHRTGWGQGTLVTVSSGGGGSGGGGSGGSALEIVMTQTPLSSPVTLGQPASISFRSSQSLVHSDGNTYLNWFQQRPGQSPRRLIYKVSNWDSGVPDRFSGSGSGTDFTLKISGAEAEDVGVYYCMQGTHWLTFGQGTKVEIKR
